# Reference: doi:10.1101/2024.01.05.574312
# Results are given in words; binding and its absence hold for the method and conditions named. In cells and extracts the contact can be indirect. Some binding calls cover weakened binding; strength is not graded here. Sequences can lack the tags named with a protein.
# Target: T1, Ubp10 (in epitope-tagged backgrounds, ChIP-CoIP; also as found in the Cdc9 proteomic analysis) (S. cerevisiae) (UniProt P53874)
# T1 sequence: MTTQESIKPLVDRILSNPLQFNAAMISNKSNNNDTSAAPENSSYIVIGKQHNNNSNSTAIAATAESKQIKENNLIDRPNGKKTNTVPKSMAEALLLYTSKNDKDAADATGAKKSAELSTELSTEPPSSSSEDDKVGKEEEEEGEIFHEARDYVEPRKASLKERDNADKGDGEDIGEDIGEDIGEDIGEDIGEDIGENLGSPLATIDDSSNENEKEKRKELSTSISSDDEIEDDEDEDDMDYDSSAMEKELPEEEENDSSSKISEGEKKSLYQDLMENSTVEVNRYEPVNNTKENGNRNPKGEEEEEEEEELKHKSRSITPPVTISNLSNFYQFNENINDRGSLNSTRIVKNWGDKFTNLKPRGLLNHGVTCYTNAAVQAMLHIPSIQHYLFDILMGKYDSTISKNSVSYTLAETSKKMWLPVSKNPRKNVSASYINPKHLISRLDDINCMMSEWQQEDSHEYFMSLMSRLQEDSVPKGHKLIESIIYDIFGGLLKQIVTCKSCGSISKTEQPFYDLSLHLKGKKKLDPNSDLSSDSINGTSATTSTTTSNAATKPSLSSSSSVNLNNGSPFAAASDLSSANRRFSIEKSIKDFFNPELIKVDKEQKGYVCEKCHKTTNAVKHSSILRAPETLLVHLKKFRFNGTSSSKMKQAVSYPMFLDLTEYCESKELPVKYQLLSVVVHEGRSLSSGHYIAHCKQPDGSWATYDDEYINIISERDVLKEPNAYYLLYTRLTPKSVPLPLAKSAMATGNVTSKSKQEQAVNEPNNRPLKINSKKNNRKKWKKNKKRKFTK
# Assay: co-IP
binder,measurement,value
"Pol3, catalytic subunit of Polδ (in an epitope-tagged background, ChIP-CoIP) (enzyme, UniProt P15436 1-1097) MSEKRSLPMVDVKIDDEDTPQLEKKIKRQSIDHGVGSEPVSTIEIIPSDSFRKYNSQGFKAKDTDLMGTQLESTFEQELSQMEHDMADQEEHDLSSFERKKLPTDFDPSLYDISFQQIDAEQSVLNGIKDENTSTVVRFFGVTSEGHSVLCNVTGFKNYLYVPAPNSSDANDQEQINKFVHYLNETFDHAIDSIEVVSKQSIWGYSGDTKLPFWKIYVTYPHMVNKLRTAFERGHLSFNSWFSNGTTTYDNIAYTLRLMVDCGIVGMSWITLPKGKYSMIEPNNRVSSCQLEVSINYRNLIAHPAEGDWSHTAPLRIMSFDIECAGRIGVFPEPEYDPVIQIANVVSIAGAKKPFIRNVFTLNTCSPITGSMIFSHATEEEMLSNWRNFIIKVDPDVIIGYNTTNFDIPYLLNRAKALKVNDFPYFGRLKTVKQEIKESVFSSKAYGTRETKNVNIDGRLQLDLLQFIQREYKLRSYTLNAVSAHFLGEQKEDVHYSIISDLQNGDSETRRRLAVYCLKDAYLPLRLMEKLMALVNYTEMARVTGVPFSYLLARGQQIKVVSQLFRKCLEIDTVIPNMQSQASDDQYEGATVIEPIRGYYDVPIATLDFNSLYPSIMMAHNLCYTTLCNKATVERLNLKIDEDYVITPNGDYFVTTKRRRGILPIILDELISARKRAKKDLRDEKDPFKRDVLNGRQLALKISANSVYGFTGATVGKLPCLAISSSVTAYGRTMILKTKTAVQEKYCIKNGYKHDAVVVYGDTDSVMVKFGTTDLKEAMDLGTEAAKYVSTLFKHPINLEFEKAYFPYLLINKKRYAGLFWTNPDKFDKLDQKGLASVRRDSCSLVSIVMNKVLKKILIERNVDGALAFVRETINDILHNRVDISKLIISKTLAPNYTNPQPHAVLAERMKRREGVGPNVGDRVDYVIIGGNDKLYNRAEDPLFVLENNIQVDSRYYLTNQLQNPIISIVAPIIGDKQANGMFVVKSIKINTGSQKGGLMSFIKKVEACKSCKGPLRKGEGPLCSNCLARSGELYIKALYDVRDLEEKYSRLWTQCQRCAGNLHSEVLCSNKNCDIFYMRVKVKKELQEKVEQLSKW",binding,binds
